These are yes or no findings as the source states them, for the method shown. For part of these data: In cells and extracts the contact can be indirect. Some results given as binding are weak or reduced against the parent protein; the word gives no strength. For part of these data: Tags and fused reporters may be left off the sequences shown.
What was measured:
[1] = target: wild-type (WT) mTRAIL-R, transiently overexpressed (mouse) (UniProt Q9QZM4); assay: non-reducing SDS-PAGE and immunoblot; lysates of Trail-R-/- MEFs transiently transfected for 24 h with 300 or 600 ng pcDNA3 plasmid, immunoblot for mTRAIL-R in reducing vs non-reducing conditions
[2] = target: N99/N122/N150Q mTRAIL-R mutant, transiently overexpressed (mouse) (UniProt Q9QZM4); assay: as above
[3] = target: non-N-glycosylated mouse TRAIL receptor (mTRAIL-R), endogenous in tunicamycin-treated MEFs (mouse (endogenous in MEFs)) (UniProt Q9QZM4); assay: non-reducing SDS-PAGE and immunoblot; high molecular weight forms of mTRAIL-R in the streptavidin pull-down of Biot-ILZ hTRAIL from MEFs (tunicamycin or control), non-reducing conditions
[4] = target: T1, Fas-associated death domain (FADD), endogenous in MEFs (mouse (endogenous in MEFs)) (UniProt Q61160); assay: co-IP; MEFs treated with tunicamycin or control for 7 h, then mTRAIL-SK (20 ng/ml) or control for 2 h; lysis in 10 mM Tris-HCl pH 7.5, 150 mM NaCl, 1% NP-40, 10% glycerol; endogenous FADD immunoprecipitated overnight at 4 °C; mTRAIL-R detected in non-reducing conditions
T1 sequence: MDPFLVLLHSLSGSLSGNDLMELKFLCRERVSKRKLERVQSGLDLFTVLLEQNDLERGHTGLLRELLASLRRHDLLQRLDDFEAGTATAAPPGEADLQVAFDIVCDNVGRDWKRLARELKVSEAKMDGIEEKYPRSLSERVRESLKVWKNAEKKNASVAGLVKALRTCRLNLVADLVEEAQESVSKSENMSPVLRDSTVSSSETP

[5] = target: T1, Fas-associated death domain (FADD), endogenous in MEFs (mouse (endogenous in MEFs)); assay: pull-down; same streptavidin pull-down of Biot-ILZ hTRAIL-bound complexes from MEFs (tunicamycin or control 7 h), read for FADD found with the receptor
[6] = target: N-glycosylated mouse TRAIL receptor (mTRAIL-R), endogenous in MEFs (mouse (endogenous in MEFs)) (UniProt Q9QZM4); assay: non-reducing SDS-PAGE and immunoblot; high molecular weight forms of mTRAIL-R in the streptavidin pull-down of Biot-ILZ hTRAIL from MEFs (tunicamycin or control), non-reducing conditions

B1: wild-type (WT) mTRAIL-R, transiently overexpressed (receptor, UniProt Q9QZM4 53-381)
chain: NPAHNRPAGLQRPEESPSRGPCLAGQYLSEGNCKPCREGIDYTSHSNHSLDSCILCTVCKEDKVVETRCNITTNTVCRCKPGTFEDKDSPEICQSCSNCTDGEEELTSCTPRENRKCVSKTAWASWHKLGLWIGLLVPVVLLIGALLVWKTGAWRQWLLCIKRGCERDPESANSVHSSLLDRQTSSTTNDSNHNTEPGKTQKTGKKLLVPVNGNDSADDLKFIFEYCSDIVPFDSWNRLMRQLGLTDNQIQMVKAETLVTREALYQMLLKWRHQTGRSASINHLLDALEAVEERDAMEKIEDYAVKSGRFTYQNAAAQPETGPGGSQCV
modifications: N-glycosylated on N99, N122 and N150
With B1 the binding [1] was “binds”.

B2: N99/N122/N150Q mTRAIL-R mutant, transiently overexpressed (receptor, UniProt Q9QZM4 53-381)
chain: NPAHNRPAGLQRPEESPSRGPCLAGQYLSEGNCKPCREGIDYTSHSQHSLDSCILCTVCKEDKVVETRCQITTNTVCRCKPGTFEDKDSPEICQSCSQCTDGEEELTSCTPRENRKCVSKTAWASWHKLGLWIGLLVPVVLLIGALLVWKTGAWRQWLLCIKRGCERDPESANSVHSSLLDRQTSSTTNDSNHNTEPGKTQKTGKKLLVPVNGNDSADDLKFIFEYCSDIVPFDSWNRLMRQLGLTDNQIQMVKAETLVTREALYQMLLKWRHQTGRSASINHLLDALEAVEERDAMEKIEDYAVKSGRFTYQNAAAQPETGPGGSQCV
In the case of B2, the binding [2] is reported as “binds”.

B3: non-N-glycosylated mouse TRAIL receptor (mTRAIL-R), endogenous in tunicamycin-treated MEFs (receptor, UniProt Q9QZM4 53-381)
chain: NPAHNRPAGLQRPEESPSRGPCLAGQYLSEGNCKPCREGIDYTSHSNHSLDSCILCTVCKEDKVVETRCNITTNTVCRCKPGTFEDKDSPEICQSCSNCTDGEEELTSCTPRENRKCVSKTAWASWHKLGLWIGLLVPVVLLIGALLVWKTGAWRQWLLCIKRGCERDPESANSVHSSLLDRQTSSTTNDSNHNTEPGKTQKTGKKLLVPVNGNDSADDLKFIFEYCSDIVPFDSWNRLMRQLGLTDNQIQMVKAETLVTREALYQMLLKWRHQTGRSASINHLLDALEAVEERDAMEKIEDYAVKSGRFTYQNAAAQPETGPGGSQCV
In the case of B3, the binding [3] is reported as “binds”, the binding [4] is reported as “binds” and the binding [5] is reported as “binds”.

B4: N-glycosylated mouse TRAIL receptor (mTRAIL-R), endogenous in MEFs (receptor, UniProt Q9QZM4 53-381)
chain: NPAHNRPAGLQRPEESPSRGPCLAGQYLSEGNCKPCREGIDYTSHSNHSLDSCILCTVCKEDKVVETRCNITTNTVCRCKPGTFEDKDSPEICQSCSNCTDGEEELTSCTPRENRKCVSKTAWASWHKLGLWIGLLVPVVLLIGALLVWKTGAWRQWLLCIKRGCERDPESANSVHSSLLDRQTSSTTNDSNHNTEPGKTQKTGKKLLVPVNGNDSADDLKFIFEYCSDIVPFDSWNRLMRQLGLTDNQIQMVKAETLVTREALYQMLLKWRHQTGRSASINHLLDALEAVEERDAMEKIEDYAVKSGRFTYQNAAAQPETGPGGSQCV
modifications: N-glycosylated on N99, N122 and N150
B4 was tested, and the binding [6] was “binds”.
